Test results as given in PMC12845422, “Characterization of a Novel Family of Contilisant + Belinostat Multitarget Small Molecules in Glioblastoma” (Pharmaceuticals, 2025).

System: GNS166 cells
Test: RNAseq profiling
Format: cell-based
Settings: 5 µM, fold-change cutoff > 4, p-value < 0.01

## O=C(/C=C/c1cccc(S(=O)(=O)n2ccc3cc(OCCCN4CCCCC4)ccc32)c1)NO [MTP150]
  downregulated genes (RNAseq): 209
  upregulated genes (RNAseq): 2205
